# Measurements from the supplement of paper PMC3047530.
# ± gives the standard deviation of the averaged measurements. The list shows a part of the results. Repeats are few or missing, and single values can be far off.
# System: Geomyces destructans
# Assay: growth inhibition relative to DMSO control; higher = stronger growth inhibition
# Details: 10 µM; 15 °C; incubation time 10 days
row,Compound,growth inhibition [%]
1,C[C@]12CCC(=O)C=C1CC[C@@H]1[C@@H]2[C@@H](O)C[C@@]2(C)[C@H]1CC[C@]2(O)C(=O)CO,-13.7
2,OC1=Cc2c(O)cc(O)cc2OC1(O)c1ccc(O)c(O)c1 (stereo not drawn),9.15
3,CC1(C)C(=O)C=C[C@]2(C)[C@H]3CC[C@@]4(C)[C@H](c5ccoc5)OC(=O)[C@H]5O[C@]54[C@]3(C)C(=O)C[C@@H]12,-8.86
4,COc1cc(O)c(C(=O)c2ccccc2)c(OC)c1,-18.9
5,C[N+]1(CCCCC[N+]2(C)CCCC2)CCCC1,-5.4
6,O=C(O[C@@H]1Cc2c(O)cc(O)cc2O[C@@H]1c1cc(O)c(O)c(O)c1-c1c([C@H]2Oc3cc(O)cc(O)c3C[C@H]2O)cc(O)c(O)c1O)c1cc(O)c(O)c(O)c1,3.94
7,Cc1onc(-c2ccccc2)c1-c1ccc(S(N)(=O)=O)cc1,-27.5
8,CCCc1cc(=O)[nH]c(=S)[nH]1,-11.5
9,CN(N=O)C(=O)N[C@H]1C(O)O[C@H](CO)[C@@H](O)[C@@H]1O (mixture of isomers),-5.08
10,COC(=O)CC1C(C)(C)C(=O)C2CC3(O)C4=CC(=O)OC(c5ccoc5)C4(C)CCC3C1(C)C2=O (stereo not drawn) [8beta-HYDROXYCARAPIN],-5.7
11,N=C(N)c1ccc(OCCCCCOc2ccc(C(=N)N)cc2)cc1,70.2
12,O=C(OC[C@H]1O[C@@H](OC(=O)c2cc(O)c(O)c(OC(=O)c3cc(O)c(O)c(O)c3)c2)[C@H](OC(=O)c2cc(O)c(O)c(OC(=O)c3cc(O)c(O)c(O)c3)c2)[C@@H](OC(=O)c2cc(O)c(O)c(OC(=O)c3cc(O)c(O)c(O)c3)c2)[C@@H]1OC(=O)c1cc(O)c(O)c(OC(=O)c2cc(O)c(O)c(O)c2)c1)c1cc(O)c(O)c(OC(=O)c2cc(O)c(O)c(O)c2)c1,-9.03
13,COc1ccc(/C=C/C(=O)O)cc1OC,5.27
14,CCCCC(=O)O[C@H]1CC[C@H]2[C@@H]3CCc4cc(O)ccc4[C@H]3CC[C@]12C,38.7
15,Fc1ccc(C(c2ccc(F)cc2)N2CCN(C/C=C/c3ccccc3)CC2)cc1,-12.5
16,CN1CCc2c(c3ccccc3n2Cc2ccccc2)C1,-39.6
17,CN[C@@H]1[C@H](O[C@H]2[C@H](O[C@H]3[C@H](O)[C@@H](O)[C@H](N=C(N)N)[C@@H](O)[C@@H]3N=C(N)N)O[C@@H](C)[C@]2(O)C=O)O[C@@H](CO)[C@H](O)[C@H]1O,-9.79
18,COc1cc(-c2coc3cc(OCc4ccccc4)c(OC)c(O)c3c2=O)cc(OCc2ccccc2)c1OC,-2.67
19,Cc1cccc(C(=O)O)c1O,15.6
20,N=C(N)NC(=N)Nc1ccccc1,-10.8 ± 0.15
21,CC1(C)S[C@@H]2[C@H](NC(=O)[C@H](N)c3ccc(O)cc3)C(=O)N2[C@H]1C(=O)O,-34.2

row,Compound,growth inhibition [%]
1,Cc1cc(O)c(C)c(O)c1C(=O)O,-2.48
2,O=C(O)CCCCCCCCCCCC[C@@H]1C=CCC1,1.76
3,COc1cc(OC)c2c(=O)c(O)c(-c3ccc(OC)c(OC)c3)oc2c1,-10.3
4,CNCc1ccccc1,-9.64
5,COc1cc(OC)cc(OC)c1,-17.1
6,COc1cc2c(cc1O)C(Cc1ccc(O)cc1)N(C)CC2 (stereo not drawn),-12.4
7,Cc1cc(=O)oc2cc(O)c(O)cc12,-17.5
8,C[n+]1cc2c3c(ccc2c2ccc4cc5c(cc4c21)OCO5)OCO3,-28.2
9,COc1ccc2c(c1)OCC(Cc1ccc(O)c(OC)c1)C2=O (stereo not drawn),-1.67
10,Nc1ncnc2c1ncn2[C@@H]1O[C@H](CO)[C@@H](O)[C@H]1O,-19.3
11,Clc1ccc(CSC(Cn2ccnc2)c2ccc(Cl)cc2Cl)cc1 (stereo not drawn),77.1
12,CN(C)CCN(Cc1ccccc1)c1ccccn1,8.17
13,C=CC1=C(C)c2cc3[nH]c(cc4nc(cc5[nH]c(cc1n2)c(C)c5CCC(=O)O)C(CCC(=O)O)=C4C)c(C)c3C=C,-2.71
14,NCCCCCCNS(=O)(=O)c1cccc2c(Cl)cccc12,-8.99
15,C/C1=C\CC(C)(C)/C=C/CC2(C)OC2CC1 (stereo not drawn),-11.4
16,COc1ccc(-c2coc3c(O)c(OC)ccc3c2=O)cc1,-2.38
17,C=C1CCC(OC(C)=O)/C(C)=C/C[C@@H]2[C@@H]1CC2(C)C (stereo partly drawn),5
18,CCCN(CCC)S(=O)(=O)c1ccc(C(=O)O)cc1,-10.4
19,CCN(CC)C(=O)c1cccc(C)c1,6.28
20,C[C@]12CC[C@@H]3c4ccc(O)cc4CC[C@H]3[C@@H]1CC[C@@H]2O,19.2
21,NC(Cc1cc(I)c(Oc2cc(I)c(O)c(I)c2)c(I)c1)C(=O)O (stereo not drawn),-12.2

# 4 successive entries out of the list so far, for reference:
row,Compound,growth inhibition [%]
4,CNCc1ccccc1,-9.64
5,COc1cc(OC)cc(OC)c1,-17.1
6,COc1cc2c(cc1O)C(Cc1ccc(O)cc1)N(C)CC2 (stereo not drawn),-12.4
7,Cc1cc(=O)oc2cc(O)c(O)cc12,-17.5

# By substructure, the compounds so far containing an NH in an aromatic ring.
row,Compound,growth inhibition [%]
8,CCCc1cc(=O)[nH]c(=S)[nH]1,-11.5
13,C=CC1=C(C)c2cc3[nH]c(cc4nc(cc5[nH]c(cc1n2)c(C)c5CCC(=O)O)C(CCC(=O)O)=C4C)c(C)c3C=C,-2.71

# Following part

row,Compound,growth inhibition [%]
1,CN(C)CC/C=C1/c2ccccc2Sc2ccc(Cl)cc21,-3.63
2,CC(=O)O[C@H]1C[C@@H](OC(C)=O)C(C)(C)[C@@H]2C[C@@H](OC(C)=O)[C@]3(C)[C@H](CC[C@@]4(C)[C@H](c5ccoc5)OC(=O)[C@H]5O[C@@]534)[C@@]12C,-3.64
3,CC(=O)[C@H]1CC[C@H]2[C@@H]3CCC4=CC(=O)CC[C@]4(C)[C@H]3CC[C@]12C,-5.54
4,CN(C)CCOC(c1ccccc1)c1ccccc1,-6.55
5,NC[C@@H]1CC[C@@H](N)[C@@H](O[C@H]2[C@H](O)[C@@H](O[C@H]3O[C@H](CO)[C@@H](O)[C@H](N)[C@H]3O)[C@H](N)C[C@@H]2N)O1,75.3
6,CC(C)=CCC/C(C)=C/C=C/C(C)=C/C=C/C(C)=C/C=C/C=C(C)/C=C/C=C(C)/C=C/C=C(\C)CCC=C(C)C,-0.0098
7,CC(=O)O[C@@H]1CC2C(C)(C)[C@H](O)C=C[C@]2(C)C2CC[C@@]3(C)[C@H](c4ccoc4)OC(=O)C4OC43[C@@]21C (stereo partly drawn),-24.2
8,COc1ccc2ccc(=O)oc2c1CC=C(C)C,-8.87
9,N=C(N)NS(=O)(=O)c1ccc(N)cc1,-10.9
10,CC(=O)Oc1ccccc1C(=O)O,-34.9
11,CC(=O)O[C@@H]1c2c(ccc3ccc(=O)oc23)OC(C)(C)[C@@H]1OC(=O)CC(C)C,-6.11
12,COc1cc2c3cc1Oc1cc(ccc1O)C[C@@H]1c4c(cc(OC)c(O)c4Oc4ccc(cc4)C[C@@H]3N(C)CC2)CC[N+]1(C)C,12.2
13,CC1=C(C(=O)O)N2C(=O)[C@@H](NC(=O)[C@H](N)C3=CCC=CC3)[C@H]2SC1,0.521
14,N[C@@H](CCC(=O)N[C@@H](CS)C(=O)NCC(=O)O)C(=O)O,-7.25
15,N[C@@H]1CONC1=O,-4.19
16,CC(=O)O[C@]1(C(C)=O)CC[C@H]2[C@@H]3C=C(Cl)C4=CC(=O)[C@@H]5C[C@@H]5[C@]4(C)[C@H]3CC[C@@]21C,-19.7
17,COc1ccc2cc([C@H](C)CO)ccc2c1,-2.88
18,CC(=O)O[C@H]1CC[C@@]2(C)C(=CC(=O)[C@H]3[C@@H]4CC[C@H]([C@H](C)CCCC(C)C)[C@@]4(C)CC[C@@H]32)C1,-1.53
19,O=C(O)/C=C/c1ccc(O)c(O)c1,-14.1
20,NC(N)=Nc1ccc(Cl)cc1,-10.6
21,O=C(O)Cc1nn(Cc2ccc(Br)cc2F)c(=O)c2ccccc12,-16.7
